Our source for the binding values is PMC8910673.

Test [1] addresses T1, MOB1A-NLuc (Arabidopsis thaliana) (UniProt Q9FHI1).
T1 sequence: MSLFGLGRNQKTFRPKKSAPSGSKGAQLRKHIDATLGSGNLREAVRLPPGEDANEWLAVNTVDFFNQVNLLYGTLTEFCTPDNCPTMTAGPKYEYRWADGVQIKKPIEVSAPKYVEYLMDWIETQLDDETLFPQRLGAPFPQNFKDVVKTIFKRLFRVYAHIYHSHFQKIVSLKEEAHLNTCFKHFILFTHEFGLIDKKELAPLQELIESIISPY
Nature of the test: split reporter; firefly luciferase complementation imaging (LCI) in N. benthamiana leaves, 2-4 days after infiltration; 1 mM D-luciferin, CCD imaging.

In test [2] the target is T2, MOB1B-NLuc (Arabidopsis thaliana) (UniProt Q8GYX0).
T2 sequence: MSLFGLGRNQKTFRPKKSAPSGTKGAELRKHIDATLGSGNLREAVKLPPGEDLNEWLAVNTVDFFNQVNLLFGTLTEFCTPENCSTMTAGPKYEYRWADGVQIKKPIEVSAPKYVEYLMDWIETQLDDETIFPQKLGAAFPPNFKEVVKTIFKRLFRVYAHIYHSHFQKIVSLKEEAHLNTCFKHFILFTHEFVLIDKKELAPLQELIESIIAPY
The description is as above.

Test [3] has as its target T3, MOB1A (pGBKT7, BD fusion) (Arabidopsis thaliana) (UniProt Q9FHI1).
T3 sequence: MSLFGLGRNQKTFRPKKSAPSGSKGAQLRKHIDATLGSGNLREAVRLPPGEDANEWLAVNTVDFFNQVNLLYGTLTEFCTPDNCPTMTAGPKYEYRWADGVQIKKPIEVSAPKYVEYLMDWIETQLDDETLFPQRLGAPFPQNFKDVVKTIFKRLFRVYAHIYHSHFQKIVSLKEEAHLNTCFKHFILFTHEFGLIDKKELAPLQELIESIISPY
Nature of the test: two-hybrid; Gal4 system (Clontech), yeast strain AH109; growth on SD/-Trp-Leu-His, 3-7 days at 28 °C.

For test [4], the target named is T4, MOB1B (pGBKT7, BD fusion) (Arabidopsis thaliana) (UniProt Q8GYX0).
T4 sequence: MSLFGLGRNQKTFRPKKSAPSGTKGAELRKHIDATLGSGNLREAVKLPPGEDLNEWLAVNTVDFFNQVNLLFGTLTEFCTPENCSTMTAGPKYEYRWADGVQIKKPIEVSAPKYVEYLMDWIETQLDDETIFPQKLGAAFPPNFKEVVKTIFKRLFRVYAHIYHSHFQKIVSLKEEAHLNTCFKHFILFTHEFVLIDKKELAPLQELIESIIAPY
The test is described as above.

Results are given in words; binding and its absence hold for the method and conditions named. For some assays here: In cells and extracts the contact can be indirect. Some binding calls cover weakened binding; strength is not graded here. Where a sequence is shown, tags or fusion partners need not be part of it.

B1: CLuc-MAP3Kε2 (protein, UniProt Q9SFB6 1-1367)
chain: MARQMTSSQFHKSKTLDNKYMLGDEIGKGAYGRVYIGLDLENGDFVAIKQVSLENIGQEDLNTIMQEIDLLKNLNHKNIVKYLGSLKTKTHLHIILEYVENGSLANIIKPNKFGPFPESLVTVYIAQVLEGLVYLHEQGVIHRDIKGANILTTKEGLVKLADFGVATKLNEADFNTHSVVGTPYWMAPEVIELSGVCAASDIWSVGCTIIELLTCVPPYYDLQPMPALYRIVQDDTPPIPDSLSPDITDFLRLCFKKDSRQRPDAKTLLSHPWIRNSRRALRSSLRHSGTIRYMKETDSSSEKDAEGSQEVVESVSAEKVEVTKTNSKSKLPVIGGASFRSEKDQSSPSDLGEEGTDSEDDINSDQGPTLSMHDKSSRQSGTCSISSDAKGTSQDVLENHEKYDRDEIPGNLETEASEGRRNTLATKLVGKEYSIQSSHSFSQKGEDGLRKAVKTPSSFGGNELTRFSDPPGDASLHDLFHPLDKVPEGKTNEASTSTPTANVNQGDSPVADGGKNDLATKLRARIAQKQMEGETGHSQDGGDLFRLMMGVLKDDVLNIDDLVFDEKVPPENLFPLQAVEFSRLVSSLRPDESEDAIVTSSLKLVAMFRQRPGQKAVFVTQNGFLPLMDLLDIPKSRVICAVLQLINEIVKDNTDFLENACLVGLIPLVMSFAGFERDRSREIRKEAAYFLQQLCQSSPLTLQMFISCRGIPVLVGFLEADYAKHREMVHLAIDGMWQVFKLKKSTSRNDFCRIAAKNGILLRLVNTLYSLSEATRLASISGDALILDGQTPRARSGQLDPNNPIFSQRETSPSVIDHPDGLKTRNGGGEEPSHALTSNSQSSDVHQPDALHPDGDRPRLSSVVADATEDVIQQHRISLSANRTSTDKLQKLAEGASNGFPVTQPDQVRPLLSLLEKEPPSRKISGQLDYVKHIAGIERHESRLPLLYASDEKKTNGDLEFIMAEFAEVSGRGKENGNLDTAPRYSSKTMTKKVMAIERVASTCGIASQTASGVLSGSGVLNARPGSTTSSGLLAHALSADVSMDYLEKVADLLLEFARAETTVKSYMCSQSLLSRLFQMFNRVEPPILLKILECTNHLSTDPNCLENLQRADAIKQLIPNLELKEGPLVYQIHHEVLSALFNLCKINKRRQEQAAENGIIPHLMLFVMSDSPLKQYALPLLCDMAHASRNSREQLRAHGGLDVYLSLLDDEYWSVIALDSIAVCLAQDVDQKVEQAFLKKDAIQKLVNFFQNCPERHFVHILEPFLKIITKSSSINKTLALNGLTPLLIARLDHQDAIARLNLLKLIKAVYEKHPKPKQLIVENDLPQKLQNLIEERRDGQRSGGQVLVKQMATSLLKALHINTIL
As to B1, the binding result in test [1] and in test [2] was “binds” in each case.

B2: MAP3Kε2 (pGADT7, AD fusion) (protein, UniProt Q9SFB6 1-1367)
chain: MARQMTSSQFHKSKTLDNKYMLGDEIGKGAYGRVYIGLDLENGDFVAIKQVSLENIGQEDLNTIMQEIDLLKNLNHKNIVKYLGSLKTKTHLHIILEYVENGSLANIIKPNKFGPFPESLVTVYIAQVLEGLVYLHEQGVIHRDIKGANILTTKEGLVKLADFGVATKLNEADFNTHSVVGTPYWMAPEVIELSGVCAASDIWSVGCTIIELLTCVPPYYDLQPMPALYRIVQDDTPPIPDSLSPDITDFLRLCFKKDSRQRPDAKTLLSHPWIRNSRRALRSSLRHSGTIRYMKETDSSSEKDAEGSQEVVESVSAEKVEVTKTNSKSKLPVIGGASFRSEKDQSSPSDLGEEGTDSEDDINSDQGPTLSMHDKSSRQSGTCSISSDAKGTSQDVLENHEKYDRDEIPGNLETEASEGRRNTLATKLVGKEYSIQSSHSFSQKGEDGLRKAVKTPSSFGGNELTRFSDPPGDASLHDLFHPLDKVPEGKTNEASTSTPTANVNQGDSPVADGGKNDLATKLRARIAQKQMEGETGHSQDGGDLFRLMMGVLKDDVLNIDDLVFDEKVPPENLFPLQAVEFSRLVSSLRPDESEDAIVTSSLKLVAMFRQRPGQKAVFVTQNGFLPLMDLLDIPKSRVICAVLQLINEIVKDNTDFLENACLVGLIPLVMSFAGFERDRSREIRKEAAYFLQQLCQSSPLTLQMFISCRGIPVLVGFLEADYAKHREMVHLAIDGMWQVFKLKKSTSRNDFCRIAAKNGILLRLVNTLYSLSEATRLASISGDALILDGQTPRARSGQLDPNNPIFSQRETSPSVIDHPDGLKTRNGGGEEPSHALTSNSQSSDVHQPDALHPDGDRPRLSSVVADATEDVIQQHRISLSANRTSTDKLQKLAEGASNGFPVTQPDQVRPLLSLLEKEPPSRKISGQLDYVKHIAGIERHESRLPLLYASDEKKTNGDLEFIMAEFAEVSGRGKENGNLDTAPRYSSKTMTKKVMAIERVASTCGIASQTASGVLSGSGVLNARPGSTTSSGLLAHALSADVSMDYLEKVADLLLEFARAETTVKSYMCSQSLLSRLFQMFNRVEPPILLKILECTNHLSTDPNCLENLQRADAIKQLIPNLELKEGPLVYQIHHEVLSALFNLCKINKRRQEQAAENGIIPHLMLFVMSDSPLKQYALPLLCDMAHASRNSREQLRAHGGLDVYLSLLDDEYWSVIALDSIAVCLAQDVDQKVEQAFLKKDAIQKLVNFFQNCPERHFVHILEPFLKIITKSSSINKTLALNGLTPLLIARLDHQDAIARLNLLKLIKAVYEKHPKPKQLIVENDLPQKLQNLIEERRDGQRSGGQVLVKQMATSLLKALHINTIL
With B2, the binding entry in test [3] and in test [4] was “binds” in each case.

B3: MAP3Kε1 (pGADT7, AD fusion) (protein, UniProt Q9LJD8 1-1368)
chain: MARQMTSSQFHKSKTLDNKYMLGDEIGKGAYGRVYKGLDLENGDFVAIKQVSLENIVQEDLNTIMQEIDLLKNLNHKNIVKYLGSSKTKTHLHIILEYVENGSLANIIKPNKFGPFPESLVAVYIAQVLEGLVYLHEQGVIHRDIKGANILTTKEGLVKLADFGVATKLNEADVNTHSVVGTPYWMAPEVIEMSGVCAASDIWSVGCTVIELLTCVPPYYDLQPMPALFRIVQDDNPPIPDSLSPDITDFLRQCFKKDSRQRPDAKTLLSHPWIRNSRRALQSSLRHSGTIKYMKEATASSEKDDEGSQDAAESLSGENVGISKTDSKSKLPLVGVSSFRSEKDQSTPSDLGEEGTDNSEDDIMSDQVPTLSIHEKSSDAKGTPQDVSDFHGKSERGETPENLVTETSEARKNTSAIKHVGKELSIPVDQTSHSFGRKGEERGIRKAVKTPSSVSGNELARFSDPPGDASLHDLFHPLDKVSEGKPNEASTSMPTSNVNQGDSPVADGGKNDLATKLRATIAQKQMEGETGHSNDGGDLFRLMMGVLKDDVIDIDGLVFDEKVPAENLFPLQAVEFSRLVSSLRPDESEDAIVSSCQKLVAMFRQRPEQKVVFVTQHGFLPLMDLLDIPKSRVICAVLQLINEIIKDNTDFQENACLVGLIPVVMSFAGPERDRSREIRKEAAYFLQQLCQSSPLTLQMFIACRGIPVLVGFLEADYAKYREMVHLAIDGMWQVFKLKRSTPRNDFCRIAAKNGILLRLINTLYSLNEATRLASISGGLDGQAPRVRSGQLDPNNPIFGQNETSSLSMIDQPDVLKTRHGGGEEPSHASTSNSQRSDVHQPDALHPDGDKPRVSSVAPDASTSGTEDVRQQHRISLSANRTSTDKLQKLAEGASNGFPVTQTEQVRPLLSLLDKEPPSRHYSGQLDYVKHITGIERHESRLPLLHGSNEKKNNGDLDFLMAEFAEVSGRGKENGSLDTTTRYPSKTMTKKVLAIEGVASTSGIASQTASGVLSGSGVLNARPGSATSSGLLAHMVSTLSADVAREYLEKVADLLLEFARADTTVKSYMCSQSLLSRLFQMFNRVEPPILLKILECTNHLSTDPNCLENLQRADAIKHLIPNLELKDGHLVYQIHHEVLSALFNLCKINKRRQEQAAENGIIPHLMLFIMSDSPLKQYALPLLCDMAHASRNSREQLRAHGGLDVYLSLLDDEYWSVIALDSIAVCLAQDNDNRKVEQALLKQDAIQKLVDFFQSCPERHFVHILEPFLKIITKSYRINKTLAVNGLTPLLISRLDHQDAIARLNLLKLIKAVYEHHPRPKQLIVENDLPQKLQNLIEERRDGQRSGGQVLVKQMATSLLKALHINTIL
Take B3: the binding entry in test [3] and in test [4] was “binds” throughout.

B4: CLuc-MAP3Kε1 (protein, UniProt Q9LJD8 1-1368)
chain: MARQMTSSQFHKSKTLDNKYMLGDEIGKGAYGRVYKGLDLENGDFVAIKQVSLENIVQEDLNTIMQEIDLLKNLNHKNIVKYLGSSKTKTHLHIILEYVENGSLANIIKPNKFGPFPESLVAVYIAQVLEGLVYLHEQGVIHRDIKGANILTTKEGLVKLADFGVATKLNEADVNTHSVVGTPYWMAPEVIEMSGVCAASDIWSVGCTVIELLTCVPPYYDLQPMPALFRIVQDDNPPIPDSLSPDITDFLRQCFKKDSRQRPDAKTLLSHPWIRNSRRALQSSLRHSGTIKYMKEATASSEKDDEGSQDAAESLSGENVGISKTDSKSKLPLVGVSSFRSEKDQSTPSDLGEEGTDNSEDDIMSDQVPTLSIHEKSSDAKGTPQDVSDFHGKSERGETPENLVTETSEARKNTSAIKHVGKELSIPVDQTSHSFGRKGEERGIRKAVKTPSSVSGNELARFSDPPGDASLHDLFHPLDKVSEGKPNEASTSMPTSNVNQGDSPVADGGKNDLATKLRATIAQKQMEGETGHSNDGGDLFRLMMGVLKDDVIDIDGLVFDEKVPAENLFPLQAVEFSRLVSSLRPDESEDAIVSSCQKLVAMFRQRPEQKVVFVTQHGFLPLMDLLDIPKSRVICAVLQLINEIIKDNTDFQENACLVGLIPVVMSFAGPERDRSREIRKEAAYFLQQLCQSSPLTLQMFIACRGIPVLVGFLEADYAKYREMVHLAIDGMWQVFKLKRSTPRNDFCRIAAKNGILLRLINTLYSLNEATRLASISGGLDGQAPRVRSGQLDPNNPIFGQNETSSLSMIDQPDVLKTRHGGGEEPSHASTSNSQRSDVHQPDALHPDGDKPRVSSVAPDASTSGTEDVRQQHRISLSANRTSTDKLQKLAEGASNGFPVTQTEQVRPLLSLLDKEPPSRHYSGQLDYVKHITGIERHESRLPLLHGSNEKKNNGDLDFLMAEFAEVSGRGKENGSLDTTTRYPSKTMTKKVLAIEGVASTSGIASQTASGVLSGSGVLNARPGSATSSGLLAHMVSTLSADVAREYLEKVADLLLEFARADTTVKSYMCSQSLLSRLFQMFNRVEPPILLKILECTNHLSTDPNCLENLQRADAIKHLIPNLELKDGHLVYQIHHEVLSALFNLCKINKRRQEQAAENGIIPHLMLFIMSDSPLKQYALPLLCDMAHASRNSREQLRAHGGLDVYLSLLDDEYWSVIALDSIAVCLAQDNDNRKVEQALLKQDAIQKLVDFFQSCPERHFVHILEPFLKIITKSYRINKTLAVNGLTPLLISRLDHQDAIARLNLLKLIKAVYEHHPRPKQLIVENDLPQKLQNLIEERRDGQRSGGQVLVKQMATSLLKALHINTIL
Regarding B4, the binding result in test [1] and in test [2] was “binds” in each case.
